Test results taken from patent US6440958B1, “Acrylic and propionic acid compounds, intermediates, processes, compositions, and methods” (Eli Lilly and Company, priority 1995, dated 2002).
At least one compound was matched to its structure with a doubt left.

System: ovariectomized (OVX) rats
Test: Serum cholesterol in ovariectomized rat post-menopausal model
Assay type: in vivo, Sprague Dawley rats
Conditions: orally administered at 0.1 mg/kg/day
Procedure: In the examples illustrating the methods, a post-menopausal model was used in which effects of different treatments upon circulating lipids were determined.
Seventy-five day old female Sprague Dawley rats (weight range of 200 to 225g) were obtained from Charles River Laboratories (Portage, Mich.). The animals were either bilaterally ovariectomized (OVX) or exposed to a Sham surgical procedure at Charles River Laboratories, and then shipped after one week. Upon arrival, they were housed in metal hanging cages in groups of 3 or 4 per cage and had ad libitum access to food (calcium content approximately 0.5%) and water for one week. Room temperature was maintained at 22.2°±1.7° C. with a minimum relative humidity of 40%. The photoperiod in the room was 12 hours light and 12 hours dark.
Dosing Regimen Tissue Collection. […] The animals were then sacrificed by asphyxiation with CO2, the uterus was removed through a midline incision, and a wet uterine weight was determined.
Cholesterol Analysis. […] Serum cholesterol was determined using a Boehringer Mannheim Diagnostics high performance cholesterol assay. […] The hydrogen peroxide was then reacted with phenol and 4-aminophenazone in the presence of peroxidase to produce a p-quinone imine dye, which was read spectrophotometrically at 500 nm. Cholesterol concentration was then calculated against a standard curve. […]

## C#C[C@]1(O)CC[C@H]2[C@@H]3CCc4cc(O)ccc4[C@H]3CC[C@@]21C [EE2, 17α-ethynyl estradiol, reference compound]
  Effect on serum cholesterol (in words): caused a decrease in serum cholesterol
